Test results reported in the supplement of paper PMC12823440, “Inhibitors supercharge kinase turnover through native proteolytic circuits” (Nature, 2025).
The other results are listed elsewhere or left out. Hit calls seldom repeat between salt and free forms of one compound.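 In K562 cells expressing nanoluciferase-fused kinases, luminescence was recorded at 4 h intervals between 2 and 18 h, normalized as percent of control with DMSO at 100% and a positive control at 0%. A significant (2 sigma) signal drop marks a time point as decreased. The authors' rule for a hit is not shown and takes in more than the number of time points.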

Chains of the proteins cited; added tags and fusions are not shown. Lines headed by an entry give the natural chain unless they say otherwise; changes in a name come on top.
UniProt Q8IWU2: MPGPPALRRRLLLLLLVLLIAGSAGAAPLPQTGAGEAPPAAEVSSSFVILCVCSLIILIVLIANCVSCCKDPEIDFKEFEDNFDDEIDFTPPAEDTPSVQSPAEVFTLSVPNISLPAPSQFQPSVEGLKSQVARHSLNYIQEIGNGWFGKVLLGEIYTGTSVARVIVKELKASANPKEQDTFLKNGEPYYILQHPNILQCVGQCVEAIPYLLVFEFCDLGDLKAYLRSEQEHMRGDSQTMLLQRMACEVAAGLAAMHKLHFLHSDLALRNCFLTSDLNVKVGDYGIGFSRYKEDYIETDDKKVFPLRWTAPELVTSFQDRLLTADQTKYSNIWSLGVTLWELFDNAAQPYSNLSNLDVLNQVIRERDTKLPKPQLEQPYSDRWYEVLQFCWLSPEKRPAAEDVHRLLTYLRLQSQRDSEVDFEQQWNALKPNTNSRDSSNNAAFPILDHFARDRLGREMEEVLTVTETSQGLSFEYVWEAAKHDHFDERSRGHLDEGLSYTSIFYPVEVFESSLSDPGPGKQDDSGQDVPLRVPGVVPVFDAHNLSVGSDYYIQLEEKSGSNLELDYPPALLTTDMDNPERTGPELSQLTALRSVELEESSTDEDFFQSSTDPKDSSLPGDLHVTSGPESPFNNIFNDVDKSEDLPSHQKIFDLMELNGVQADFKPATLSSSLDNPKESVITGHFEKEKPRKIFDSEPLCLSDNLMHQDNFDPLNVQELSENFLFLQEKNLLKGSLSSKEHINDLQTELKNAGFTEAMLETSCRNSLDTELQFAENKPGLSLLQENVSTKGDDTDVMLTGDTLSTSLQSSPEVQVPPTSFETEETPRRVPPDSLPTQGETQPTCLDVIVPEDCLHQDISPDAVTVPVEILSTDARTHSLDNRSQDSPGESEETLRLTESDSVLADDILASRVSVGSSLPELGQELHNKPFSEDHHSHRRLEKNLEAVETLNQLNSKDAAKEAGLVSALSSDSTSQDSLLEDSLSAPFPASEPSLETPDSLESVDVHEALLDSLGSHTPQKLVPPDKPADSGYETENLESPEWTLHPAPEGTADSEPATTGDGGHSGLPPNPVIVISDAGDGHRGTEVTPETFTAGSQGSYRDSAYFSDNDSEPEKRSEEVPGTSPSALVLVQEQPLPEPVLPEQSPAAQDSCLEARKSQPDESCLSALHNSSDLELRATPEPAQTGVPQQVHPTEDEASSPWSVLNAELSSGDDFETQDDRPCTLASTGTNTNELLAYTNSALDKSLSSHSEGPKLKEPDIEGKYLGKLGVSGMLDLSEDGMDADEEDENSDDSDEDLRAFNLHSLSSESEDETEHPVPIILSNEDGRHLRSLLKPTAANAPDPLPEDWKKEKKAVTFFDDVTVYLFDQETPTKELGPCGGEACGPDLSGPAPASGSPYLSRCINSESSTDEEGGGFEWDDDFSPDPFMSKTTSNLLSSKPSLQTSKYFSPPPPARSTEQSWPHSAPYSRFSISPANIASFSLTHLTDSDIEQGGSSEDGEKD

Each compound was assayed against LMTK2 (UniProt Q8IWU2) (assay: kinase-Nluc reporter destabilization hit call (1 = scored as downregulated) (binary); higher = compound decreases kinase abundance). Conditions: K562; 2-18 h.

kinase-Nluc reporter destabilization hit call, inactive:
O=C(O)c1cc(N(Cc2ccccc2O)Cc2ccccc2O)ccc1O [Lavendustin B] (10 µM) 0
Cc1cnc(NC2CCOCC2)nc1-n1cnc(C(=O)N[C@H](CN)c2cc(F)cc(Cl)c2)c1 (10 µM) 0
Cn1ncc2cc(-c3cnc(N)c(Cl)c3N3CCC4(CCNC4=O)CC3)ccc21 (10 µM) 0
CC(C)c1cccc(C(C)C)c1N1C(=O)c2ccc(N)cc2C1=O (2.5 µM) 0
CC[C@@](C)(Nc1ccnc(-c2c[nH]c3ncccc23)n1)C(=O)NCC(F)(F)F [Decernotinib] (10 µM) 0
NC1=NCCN1CC(=O)O [Cyclocreatine] (10 µM) 0
Nc1c(C(=O)NCc2ccc(C(=O)NCCCC3CCCCC3)cc2)cnn1-c1ccccc1 (2.5 µM) 0
C[C@H](Nc1ncnc2nc[nH]c12)c1cc2cccc(Cl)c2c(=O)n1-c1ccccc1 [Duvelisib] (10 µM) 0
Cc1cc(Nc2nc(CC3(C(=O)O)CCN(C(=O)c4cccc(Cl)c4Cl)CC3)ccc2F)n[nH]1 (10 µM) 0
C[C@@H]1O[C@@H](O[C@@H]2[C@@H](O)[C@H](OCCc3ccc(O)c(O)c3)O[C@H](CO)[C@H]2OC(=O)/C=C/c2ccc(O)c(O)c2)[C@H](O)[C@H](O)[C@H]1O [Verbascoside] (10 µM) 0
O=C1/C(=C\c2ccc(Cl)cc2)C=C(c2ccccc2)N1c1ccc(O)cc1 (2.5 µM) 0
Nc1nccc(Oc2ccc(NC(=O)c3c[nH]cc(-c4ccc(F)cc4)c3=O)cc2F)c1Cl (10 µM) 0
COc1ccc(-c2c(C)nn3c(NCCN4CCOCC4)cc(C)nc23)cc1OC (10 µM) 0
O=C1NC(=O)C(c2cnc3ccccn23)=C1c1cn2c3c(cc(F)cc13)CNCC2 [GSK-3 inhibitor 1] (2.5 µM) 0
CCCCCCCC/C=C\CCCCCCCCCCCC(=O)O [Erucic acid] (10 µM) 0
O=C(Nc1nc2ccccc2[nH]1)c1cccc([N+](=O)[O-])c1 [IRAK-4 protein kinase inhibitor 2] (10 µM) 0
Cc1cccc(-c2[nH]c(C(C)(C)C)nc2-c2ccc3nccnc3c2)n1 (10 µM) 0
C[C@@H]1CC(=O)c2c(ccc3c2C(=O)c2cccc(O)c2C3=O)C1 [Ochromycinone] (10 µM) 0
CN1C(=O)[C@@H](NC(=O)c2n[nH]c(Cc3ccccc3)n2)COc2ccccc21 (10 µM) 0
CCc1cccc(CC)c1NC(=O)N1Cc2[nH]nc(NC(=O)c3ccc(N4CCN(C)CC4)cc3)c2C1 (2.5 µM) 0
COc1ccc(N=Nc2c(N)n[nH]c2N)cc1 (10 µM) 0
Cc1ccc(NC(=O)c2ccnc(C(F)(F)F)c2)cc1-c1cc(OCCO)nc(N2CCOCC2)c1 (10 µM) 0
CC(C)(O)[C@H]1CC[C@H](Nc2ccc3ncc(-c4cccc(C(F)(F)F)c4)n3n2)CC1 (10 µM) 0
CCn1c(=O)c(-c2cc[nH]n2)cc2c(C)nc(N)nc21 [Voxtalisib] (10 µM) 0
C[C@H](NC(=O)[C@H]1NCC[C@@H]1O)c1ccc(-c2noc(CCC3CCCC3)n2)cc1 (10 µM) 0
O=C1O[C@H]([C@@H](O)CO)C(O)=C1OP(=O)(O)O [2-Phospho-L-ascorbic acid (trisodium)] (10 µM) 0
Cn1cnc([N+](=O)[O-])c1C[N+](C)(C)C/C=C/C(=O)Nc1cc2c(Nc3ccc(Cl)c(Br)c3)ncnc2cn1 [Tarloxotinib (bromide)] (10 µM) 0
CC1(C)Cc2c(sc(NC(=S)NC(=O)c3ccccc3)c2C(=O)O)CO1 (10 µM) 0
CCCCCCCCCCCCCCCCOP(=O)([O-])OCC[N+](C)(C)C [Miltefosine] (10 µM) 0
N#CC(c1ccnc(OCc2ccc(CN3CCOCC3)cc2)n1)c1nc2ccccc2s1 (stereo unspecified) [Bentamapimod] (2.5 µM) 0
Cc1cnc(-c2ccc(-c3ccc(NC(=O)Nc4cccc(C(F)(F)F)c4)cc3F)c3c2C(=O)NC3)[nH]1 (10 µM) 0

Looked up by structure from above:
kinase-Nluc reporter destabilization hit call, inactive:
COc1ccc(N=Nc2c(N)n[nH]c2N)cc1 (10 µM) 0
COc1ccc(-c2c(C)nn3c(NCCN4CCOCC4)cc(C)nc23)cc1OC (10 µM) 0
C[C@@H]1CC(=O)c2c(ccc3c2C(=O)c2cccc(O)c2C3=O)C1 [Ochromycinone] (10 µM) 0
